Assay results reported in publication PMC4792573.
These are yes or no findings as the source states them, for the method shown. In cells and extracts the contact can be indirect. Some binding calls cover weakened binding; strength is not graded here.

Target: NAD(P)H quinone oxidoreductase 1 (human (endogenous in MCF7)) (UniProt P15559)
Test: co-IP; total protein of control and Ell3-OE MCF7 cells treated with CDDP for 12 h, immunoprecipitated with anti-NQO1 antibodies (4 μg, 16 h, 4°C, protein G beads), immunoblotted with anti-p53

p53 (endogenous in MCF7 cells) (from UniProt P04637 1-393)
binding: binds
